Assay results taken from article PMC7819943, “Rice protein-binding microarrays: a tool to detect cis-acting elements near promoter regions in rice”.
The list shows a part of the results.

Protein sequences, listed by entry. Tags and fused reporters are not part of them.
UniProt Q0JBA9, entry or part of it: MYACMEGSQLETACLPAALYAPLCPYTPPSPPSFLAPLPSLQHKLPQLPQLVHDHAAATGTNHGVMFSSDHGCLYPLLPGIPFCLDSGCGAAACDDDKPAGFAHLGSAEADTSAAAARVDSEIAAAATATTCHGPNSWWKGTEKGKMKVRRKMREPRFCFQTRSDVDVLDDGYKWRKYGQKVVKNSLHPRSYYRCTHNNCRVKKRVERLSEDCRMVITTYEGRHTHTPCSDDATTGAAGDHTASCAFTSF

biological target: OsWRKY34 (Oryza sativa, UniProt Q0JBA9 1-250); assay: protein-binding microarray (RPBM); PBS, 2% BSA, 51.3 ng/ul salmon testes DNA, 50 uM zinc acetate, 200 nM TF, 25 C, 1 h; high values mean tight binding; conditions: protein: recombinant; tags: N-terminal polyhistidine and DsRed monomer fusion (pET32a); label: CyDye5-dUTP incorporated in the synthesized complementary strand; 3' TTTTT single-stranded linker to array surface; dsDNA, one strand shown
Procedure, shortened: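 Transcription factors were each fused at the N-terminus to a polyhistidine tag plus DsRed and expressed in E. coli BL21-CodonPlus before Ni–NTA purification. Binding to a double-stranded custom Agilent array was carried out with 200 nM protein at 25 °C for 1 h in PBS, 2% BSA, salmon testes DNA and 50 µM zinc acetate. The binding signal is per-feature fluorescence intensity, in arbitrary units, on an Axon 4000B scanner.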

Sequence | binding signal
TAACTCATCCCTCTTGTTTTCTATACACATATTTTCAAACCGGAGTCACCTAGTGCAG | 8470 fluorescence intensity (a.u.)
CTTCGCTCCACCCGTCTACGTCTGTTTGTTGTATTCCCCTCGGAGTCACCTAGTGCAG | 11900 ± 175 fluorescence intensity (a.u.)
AAACACAGCCTTATTTTGGGACAGAGCGAGTATTGACTTTCGGAGTCACCTAGTGCAG | 8400 fluorescence intensity (a.u.)
TCCCACACTGGGTTTTGACGTTCTGTTGATTCCTCTTATTCGGAGTCACCTAGTGCAG | 12600 fluorescence intensity (a.u.)
TATTACACATACCGGTTTTGCTAGATGATTGGCTATCATCCGGAGTCACCTAGTGCAG | 9340 fluorescence intensity (a.u.)
TCAGTGGACTCGGTTCTGTTTTTTTGTCACTCCACTGGCACGGAGTCACCTAGTGCAG | 9610 fluorescence intensity (a.u.)
GGGATACAGTGGTCTTATGTCACTGTTTCTAAGGTATACCCGGAGTCACCTAGTGCAG | 8190 fluorescence intensity (a.u.)
AAACTTTCAACTTTTTTATCGCATCGTTTCAATTTCAACCCGGAGTCACCTAGTGCAG | 8150 fluorescence intensity (a.u.)
CCCGTTTGAGCCACACCATTCTCATCTATTTAAATGCCTTCGGAGTCACCTAGTGCAG | 11800 fluorescence intensity (a.u.)
GGGTTTGTCTTTTTTCCTTTTTTTTTTTTTTTTTTTCGGACGGAGTCACCTAGTGCAG | 13000 fluorescence intensity (a.u.)
TCACCGCTCCTGGCCAACCCTCACCTACCGGTGCGCTCGACGGAGTCACCTAGTGCAG | 8310 fluorescence intensity (a.u.)
GCCGCCGCCGCCGCCACTCCGCCCCGCCATGGCCGCTCTCCGGAGTCACCTAGTGCAG | 8490 fluorescence intensity (a.u.)
AACCGATGTGCTCTCAGTTGCCCACGGCTGCTCAACTGGACGGAGTCACCTAGTGCAG | 8130 fluorescence intensity (a.u.)
TCCAATTCCATCGCTTTTCTGTTCTTCCATCCTCGTCGTGCGGAGTCACCTAGTGCAG | 9600 fluorescence intensity (a.u.)
ATAATGCAAAATTGCAATTTGCAACCCCACCATGCCATTTCGGAGTCACCTAGTGCAG | 8850 fluorescence intensity (a.u.)
TCCCTACCGTCCATCCGCGCGATTTCATTCACCAACGCATCGGAGTCACCTAGTGCAG | 8300 fluorescence intensity (a.u.)
ATGTCATTTGTGTATGAGTCGGTTTTCAAGTTCGTTCGCTCGGAGTCACCTAGTGCAG | 10100 fluorescence intensity (a.u.)
ACTTCTTAGGCTCCGTTTAGCTTCTTAGGTTGGTTTTTTTCGGAGTCACCTAGTGCAG | 10700 fluorescence intensity (a.u.)
ATGTTTCCGTATTCATGTCCGATCAAATTCGATTCTTATTCGGAGTCACCTAGTGCAG | 10800 fluorescence intensity (a.u.)
CAGCGCCCACGTCATCACCGGTCGGAGGGGAAAAACATCTCGGAGTCACCTAGTGCAG | 9470 fluorescence intensity (a.u.)
ATCGTCACCTCTCGAACTATTTTCTTGTTGCTTGTTGTAACGGAGTCACCTAGTGCAG | 10300 fluorescence intensity (a.u.)

3 entries picked at random from those above, as already listed:
Sequence | binding signal
TAACTCATCCCTCTTGTTTTCTATACACATATTTTCAAACCGGAGTCACCTAGTGCAG | 8470 fluorescence intensity (a.u.)
TCACCGCTCCTGGCCAACCCTCACCTACCGGTGCGCTCGACGGAGTCACCTAGTGCAG | 8310 fluorescence intensity (a.u.)
TCCCACACTGGGTTTTGACGTTCTGTTGATTCCTCTTATTCGGAGTCACCTAGTGCAG | 12600 fluorescence intensity (a.u.)

(continued)

Sequence | binding signal
TGACAGCTACCGTCTTCTCGTCTGACCCGAGTCCGAGTCGCGGAGTCACCTAGTGCAG | 8650 fluorescence intensity (a.u.)
ACACCTTCAATCGCTCTCTCATGAATTAACCGAACAAGACCGGAGTCACCTAGTGCAG | 9340 fluorescence intensity (a.u.)
TTTTGCGAGGTGGTCGTCTTGTTCCGGGGCACCGTCACGCCGGAGTCACCTAGTGCAG | 8250 fluorescence intensity (a.u.)
TACTGGCCGATAAGTACGCTCACCACTTCAACGTCGTCCACGGAGTCACCTAGTGCAG | 10300 fluorescence intensity (a.u.)
ATGACCGATCCTACGATTGAAAAAGTTGACTGCGATATCTCGGAGTCACCTAGTGCAG | 8050 fluorescence intensity (a.u.)
GAATCTTGTCACTCTCTCATCAATCTACACCCAATTTCCACGGAGTCACCTAGTGCAG | 9010 fluorescence intensity (a.u.)
TTACGTGGGCACACTGTCTCACTTTGTTTTGTCATTGTTCCGGAGTCACCTAGTGCAG | 8640 fluorescence intensity (a.u.)
CATGCGAAAAAAAGTCAACGGCGTCATCTATTAAAAAATGCGGAGTCACCTAGTGCAG | 10500 fluorescence intensity (a.u.)
TCGCAGGGCAGGAAGCTGTCGTAGCAGACGGGGTGGGGATCGGAGTCACCTAGTGCAG | 10300 fluorescence intensity (a.u.)
GCTTCATTTTTCTTGGCCATAACTTTGGCAACTTAGCCACCGGAGTCACCTAGTGCAG | 9160 fluorescence intensity (a.u.)
ACAGAGCCGGCGCCGTCATTCTTTTCTCCACGTCGCTGCACGGAGTCACCTAGTGCAG | 8670 fluorescence intensity (a.u.)
CCTCGTCAATCCTCTACATCCTGCGTTTCTTCCCCGTATACGGAGTCACCTAGTGCAG | 12800 fluorescence intensity (a.u.)
CCTCCCTCCATCCCGCTTTTGGCCATTTCGGCATCCACTTCGGAGTCACCTAGTGCAG | 9130 fluorescence intensity (a.u.)
GTTGCCTTTTTTAGAGCTCTGTATCACCGCTTCTTGTGCGCGGAGTCACCTAGTGCAG | 11700 fluorescence intensity (a.u.)
ATGTGCTATTATGTGTTGCGAGCACTAGTGCCTAACGTGACGGAGTCACCTAGTGCAG | 8850 fluorescence intensity (a.u.)
TAAGTGATTTACTGCTAGCTTGTACCTTTTCTGTTTGTAACGGAGTCACCTAGTGCAG | 9040 fluorescence intensity (a.u.)
GGCCACGGCGGGTTAGGGAGGTGGGTGGTGCCGCCGGTCGCGGAGTCACCTAGTGCAG | 11500 fluorescence intensity (a.u.)
CCCATGGTTTCCCTGTAGGCCACAGTACTACGACCTATACCGGAGTCACCTAGTGCAG | 8150 fluorescence intensity (a.u.)
GTTGGGGAGCGCGGCGGGGCGTCGGAGGAGTTGACAGGAGCGGAGTCACCTAGTGCAG | 8910 fluorescence intensity (a.u.)
TTTGGCGGGGTCGATACAGGTTGAAGGAATGGATAACTCACGGAGTCACCTAGTGCAG | 13500 fluorescence intensity (a.u.)
CTCTCCTGCCTGCTTCGTCTACTCCTCTCCCAACTCCGATCGGAGTCACCTAGTGCAG | 12600 fluorescence intensity (a.u.)
